Results as given in the supplement of paper PMC4604168 (melanoma cell lines).
Some of the results follow. Repeats are few or missing, and single values can be far off.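 The apoptosis fraction was the count of cleaved-PARP antibody-stained nuclei relative to all DNA-stained nuclei, imaged in 1,536-well plates. Screening doses were set so most cells survived, and baseline and induced cleaved-PARP levels vary greatly across cell lines.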

Key:
Experiment in all cases: cleaved PARP positive nuclei fraction relative to DMSO control; melanoma cells; higher = more apoptosis
Settings in all cases: library dose: low library concentration; 72 h
WM115 = system: WM115
WM1716 = system: WM1716
WM1745 = system: WM1745
WM3526 = system: WM3526
WM3619 = system: WM3619
WM451Lu = system: WM451Lu

SMILES	cleaved PARP positive nuclei fraction (WM115) [%]	cleaved PARP positive nuclei fraction (WM1716) [%]	cleaved PARP positive nuclei fraction (WM1745) [%]	cleaved PARP positive nuclei fraction (WM3526) [%]	cleaved PARP positive nuclei fraction (WM3619) [%]	cleaved PARP positive nuclei fraction (WM451Lu) [%]
C[As](C)SC[C@H](NC(=O)CC[C@H](N)C(=O)O)C(=O)NCC(=O)O [Darinaparsin] + O=C(CCCCCCC(=O)Nc1ccccc1)NO [vorinostat] (first compound 0.4 µM, partner dose 0.08 µM)	50.4	55.7	75.4	176	91	89.5
N.N.[Cl][Pt][Cl] [cisplatin] + OCCn1cc(-c2cnc3nnn(Cc4ccc5ncccc5c4)c3n2)cn1 [PF04217903] (first compound 1.6 µM, partner dose 1 µM)	67.6	165	104	61.9	103	210
O=C(Nc1cc(C(F)(F)F)cc(C(F)(F)F)c1)c1cc(Cl)ccc1O + O=C(Oc1ccc([N+](=O)[O-])cc1)N1CCC(C(O)(c2ccc3c(c2)OCO3)c2ccc3c(c2)OCO3)CC1 [JZL184] (first compound 0.016 µM, partner dose 1 µM)	132	90.7	89.8	92.2	94.2	77.3
N.N.[Cl][Pt][Cl] [cisplatin] + COc1cc2c(Oc3ccc4[nH]c(C)cc4c3F)ncnc2cc1OCCCN1CCCC1 [cediranib] (first compound 1.6 µM, partner dose 0.4 µM)	84	128	158	41	82.8	29.9
C[C@]12O[C@H](C[C@]1(O)CO)n1c3ccccc3c3c4c(c5c6ccccc6n2c5c31)CNC4=O [Lestaurtinib] + O=C(O)c1ccc(-c2c[nH]c3ncc(-c4ccccc4)cc23)cc1C1CCCC1 [GSK650394] (first compound 0.004 µM, partner dose 0.16 µM)	66.2	150	106	358	81.6	302
Cn1cc(C2=C(c3cn(C4CCN(Cc5ccccn5)CC4)c4ccccc34)C(=O)NC2=O)c2ccccc21 [Enzastaurin] + C[C@@H]1CCN(C(=O)CC#N)C[C@@H]1N(C)c1ncnc2[nH]ccc12 [CP690550] (first compound 0.8 µM, partner dose 1 µM)	21.5	79.6	88.8	122	90.1	32.8
C[C@]1(c2nc3c(C(N)=O)cccc3[nH]2)CCCN1 [Veliparib] + O=C(Oc1ccc([N+](=O)[O-])cc1)N1CCC(C(O)(c2ccc3c(c2)OCO3)c2ccc3c(c2)OCO3)CC1 [JZL184] (first compound 1.4 µM, partner dose 1 µM)	395	284	117	141	124	58.5
NC(=O)c1ccc(N(C(N)=O)c2c(F)cccc2F)nc1-c1ccc(F)cc1F + C[As](C)SC[C@H](NC(=O)CC[C@H](N)C(=O)O)C(=O)NCC(=O)O [Darinaparsin] (first compound 0.4 µM, partner dose 0.4 µM)	143	24.3	86.9	46.1	88.6	37.8
COc1ccc(-c2ccc3c(N4CCOCC4)nc(N4C[C@@H](C)O[C@@H](C)C4)nc3n2)cc1CO + Cc1cc(SCc2sc(-c3ccc(C(F)(F)F)c(F)c3)nc2C)ccc1OCC(=O)O [GW0742] (first compound 0.02 µM, partner dose 2 µM)	42.7	141	104	62.5	118	254
CC[C@]1(O)C[C@H]2CN(CCc3c([nH]c4ccccc34)[C@@](C(=O)OC)(c3cc4c(cc3OC)N(C=O)[C@H]3[C@@](O)(C(=O)OC)[C@H](OC(C)=O)[C@]5(CC)C=CCN6CC[C@]43[C@@H]65)C2)C1 [vincristine] + Cn1cc(C2=C(c3cn(C4CCN(Cc5ccccn5)CC4)c4ccccc34)C(=O)NC2=O)c2ccccc21 [Enzastaurin] (first compound 0.0001 µM, partner dose 0.8 µM)	508	101	105	32.2	131	229
NC1(c2ccc(-c3nc4ccn5c(=O)[nH]nc5c4cc3-c3ccccc3)cc2)CCC1 + C/C(O)=C(\C#N)C(=O)Nc1cc(Br)ccc1Br [LFM-A13] (first compound 0.4 µM, partner dose 2 µM)	212	50.8	82.8	63.7	94.1	91.5
CO[C@H]1C[C@@H]2CC[C@@H](C)[C@@](O)(O2)C(=O)C(=O)N2CCCC[C@H]2C(=O)O[C@H]([C@H](C)C[C@@H]2CC[C@@H](OCCO)[C@H](OC)C2)CC(=O)[C@H](C)/C=C(\C)[C@@H](O)[C@@H](OC)C(=O)[C@H](C)C[C@H](C)/C=C/C=C/C=C/1C [everolimus] + C/C(O)=C(\C#N)C(=O)Nc1cc(Br)ccc1Br [LFM-A13] (first compound 0.02 µM, partner dose 2 µM)	210	175	107	103	127	84.6
